In the supplement of paper PMC11348887:
Where a name gives a salt, the structure may show the parent alone. The list shows a part of the results. Most entries show no effect beyond the scatter of the controls.

Each molecule was assayed on hPSC-derived cortical neurons (WA09) (assay: nucleus roundness z-score vs screen plate; higher = rounder nuclei (more mature)). Conditions: 5 µM; treatment: days 7-14 after plating, readout day 21.

Row | Compound | nucleus roundness z-score
1 | CN(C)[C@@H]1C(O)=C(C(N)=O)C(=O)[C@@]2(O)C(O)=C3C(=O)c4c(O)cccc4[C@@](C)(O)[C@H]3C[C@@H]12 [Tetracycline HCl] | 0.848
2 | C=C[C@](C)(O)CC[C@@H]1[C@@]2(C)CCCC(C)(C)[C@@H]2CC[C@@]1(C)O [Sclareol] | 0.339
3 | O=C1CN(/N=C/c2ccc(-c3ccc([N+](=O)[O-])cc3)o2)C(=O)N1 [Dantrolene sodium hemiheptahydrate] | -0.0598
4 | CC(C)N(CCCNC(=O)Nc1ccc(C(C)(C)C)cc1)C[C@H]1O[C@@H](n2ccc3c(N)ncnc32)[C@H](O)[C@@H]1O | 0.695
5 | CC(C)c1cc(-c2n[nH]c(=O)n2-c2ccc3c(ccn3C)c2)c(O)cc1O [Ganetespib (STA-9090)] | -2.57
6 | CN(C)[C@@H](CCOc1cccc2ccccc12)c1ccccc1 [Dapoxetine HCl] | -0.724
7 | Cc1ccc(Sc2cncc3sc(C(N)=O)cc23)cc1 | -1.52
8 | NC(N)=NCCCC(N)C(=O)NCC(=O)NC(CC(=O)O)C(=O)O (stereo not drawn) [RGD (Arg-Gly-Asp) Peptides] | -0.435

These molecules were tested on hPSC-derived cortical neurons (WA09) (assay: KCl-induced FOS+/EGR-1+ double-positive nuclei fraction z-score (KCl minus unstimulated); higher = stronger activity-induced IEG response). Conditions: 5 µM; treatment: days 7-14 after plating, readout day 21.

Row | Compound | KCl-induced FOS+/EGR-1+ double-positive nuclei fraction z-score
9 | CC(C)(C)CC(C)(C)c1ccc(OCCOCC[N+](C)(C)Cc2ccccc2)cc1 [Benzethonium Chloride] | -0.512
10 | C=CC(=O)Nc1cccc(Sc2nc(Nc3ccc(N4CCN(C)CC4)cc3)ncc2Cl)c1 | 0.0352
11 | Cn1cc(-c2ccncc2)c(-c2ccc(OCc3ccc4ccccc4n3)cc2)n1 | -0.128
12 | Fc1ccc([C@@H]2CCNC[C@H]2COc2ccc3c(c2)OCO3)cc1 [Paroxetine HCl] | -2.08
13 | NS(=O)(=O)c1cc(C(=O)O)c(NCc2ccco2)cc1Cl [Furosemide] | 1.09
14 | CCOCc1nc2c(N)nc3ccccc3c2n1CC(C)(C)O [Resiquimod] | 3.25
15 | O=C(COc1ccc(Cl)cc1)NC1CCC(NC(=O)COc2ccc(Cl)cc2)CC1 (stereo not drawn) [ISRIB (trans-isomer)] | 1.84
16 | Cc1[nH]c2ccccc2c1CCNCc1ccc(/C=C/C(=O)NO)cc1 [Panobinostat (LBH589)] | -0.627
17 | CC(C(=O)O)c1ccc2c(c1)Cc1cccnc1O2 (stereo not given) [Pranoprofen] | -0.647
18 | OC[C@H]1O[C@@H](O[C@@H]2[C@@H](CO)OC(O)(CO)[C@H]2O)[C@H](O)[C@@H](O)[C@H]1O (mixture of isomers) [Lactulose] | -0.123
19 | COC(=O)[C@H]1[C@H]2C[C@@H]3c4[nH]c5cc(OC)ccc5c4CCN3C[C@H]2C[C@@H](OC(=O)c2cc(OC)c(OC)c(OC)c2)[C@@H]1OC [Reserpine] | -1.15
20 | COc1cc(C2Oc3cc([C@H]4Oc5cc(O)cc(O)c5C(=O)[C@@H]4O)ccc3OC2CO)ccc1O (stereo not given in full) [Silibinin] | 0.365
21 | O=C(O)c1cc(/N=N/c2ccc(O)c(C(=O)O)c2)ccc1O [Olsalazine Sodium] | 0.214
22 | OCCOc1ccc(/C(=C(/CCCl)c2ccccc2)c2ccccc2)cc1 [Ospemifene] | 1.7
23 | O=NO [Sodium Nitrite] | 0.0838
24 | C[C@H](NC(=O)/C(C#N)=C/c1cccc(Br)n1)c1ccccc1 | 0.259
25 | CCC(C)(C)c1ccc(CC(C)CN2C[C@@H](C)O[C@@H](C)C2)cc1 (stereo not given in full) [Amorolfine HCl] | -0.428
26 | Cc1cc([C@@H](C)Nc2ccccc2C(=O)O)c2nc(N3CCOCC3)cc(=O)n2c1 | -0.158
27 | O=C(O)CCc1ccc(NCc2cccc(Oc3ccccc3)c2)cc1 | 1.06
28 | Nc1nc(NCCc2ccc(O)cc2)nc2nc(-c3ccco3)nn12 | 0.589
29 | O=c1c(-n2ccnn2)c[nH]n1-c1cc(N2CCOCC2)ncn1 [Molidustat (BAY 85-3934)] | 1.18
30 | O=C(NOC[C@H](O)CO)c1ccc(F)c(F)c1Nc1ccc(I)cc1F | -0.747
31 | Brc1ccc([C@H]2CN3CCSC3=N2)cc1 [(-)-p-Bromotetramisole Oxalate] | 0.472
32 | Cc1cc(C)nc(NS(=O)(=O)c2ccc(N)cc2)n1 [Sulfamethazine] | -1.61
33 | CCNC(=O)[C@H]1O[C@@H](n2cnc3c(N)nc(NCCc4ccc(CCC(=O)O)cc4)nc32)[C@H](O)[C@@H]1O | 0.722
34 | COC1=C2C[C@@H](C)C[C@H](OC)[C@H](O)[C@@H](C)/C=C(\C)[C@H](OC(N)=O)[C@@H](OC)/C=C\C=C(/C)C(=O)NC(=CC1=O)C2=O [Geldanamycin] | -1
35 | CN1CCN(C(c2ccccc2)c2ccccc2)CC1 [Cyclizine 2HCl] | 1.01

Shown with tabs: entries from further up.
Row	Compound	KCl-induced FOS+/EGR-1+ double-positive nuclei fraction z-score
21	O=C(O)c1cc(/N=N/c2ccc(O)c(C(=O)O)c2)ccc1O [Olsalazine Sodium]	0.214
32	Cc1cc(C)nc(NS(=O)(=O)c2ccc(N)cc2)n1 [Sulfamethazine]	-1.61
